# Measured values reported in publication PMC9950477.
# Chains of the proteins cited; added tags and fusions are not shown.
# UniProt O43248: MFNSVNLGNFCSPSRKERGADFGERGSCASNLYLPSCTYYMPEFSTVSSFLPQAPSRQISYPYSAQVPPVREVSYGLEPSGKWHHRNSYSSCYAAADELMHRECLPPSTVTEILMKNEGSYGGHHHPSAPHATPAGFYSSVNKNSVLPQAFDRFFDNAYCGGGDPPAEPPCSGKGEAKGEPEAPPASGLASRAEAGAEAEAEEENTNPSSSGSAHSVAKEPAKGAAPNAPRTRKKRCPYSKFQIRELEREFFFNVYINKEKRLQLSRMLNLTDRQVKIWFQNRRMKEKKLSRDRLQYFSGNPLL
# No constants are given. Whether binding was seen depends on the method and setting. In cells and extracts the contact can be indirect.
# Target: T1, ubiquitin-specific protease 8 (USP8) (UniProt P40818)
# T1 sequence: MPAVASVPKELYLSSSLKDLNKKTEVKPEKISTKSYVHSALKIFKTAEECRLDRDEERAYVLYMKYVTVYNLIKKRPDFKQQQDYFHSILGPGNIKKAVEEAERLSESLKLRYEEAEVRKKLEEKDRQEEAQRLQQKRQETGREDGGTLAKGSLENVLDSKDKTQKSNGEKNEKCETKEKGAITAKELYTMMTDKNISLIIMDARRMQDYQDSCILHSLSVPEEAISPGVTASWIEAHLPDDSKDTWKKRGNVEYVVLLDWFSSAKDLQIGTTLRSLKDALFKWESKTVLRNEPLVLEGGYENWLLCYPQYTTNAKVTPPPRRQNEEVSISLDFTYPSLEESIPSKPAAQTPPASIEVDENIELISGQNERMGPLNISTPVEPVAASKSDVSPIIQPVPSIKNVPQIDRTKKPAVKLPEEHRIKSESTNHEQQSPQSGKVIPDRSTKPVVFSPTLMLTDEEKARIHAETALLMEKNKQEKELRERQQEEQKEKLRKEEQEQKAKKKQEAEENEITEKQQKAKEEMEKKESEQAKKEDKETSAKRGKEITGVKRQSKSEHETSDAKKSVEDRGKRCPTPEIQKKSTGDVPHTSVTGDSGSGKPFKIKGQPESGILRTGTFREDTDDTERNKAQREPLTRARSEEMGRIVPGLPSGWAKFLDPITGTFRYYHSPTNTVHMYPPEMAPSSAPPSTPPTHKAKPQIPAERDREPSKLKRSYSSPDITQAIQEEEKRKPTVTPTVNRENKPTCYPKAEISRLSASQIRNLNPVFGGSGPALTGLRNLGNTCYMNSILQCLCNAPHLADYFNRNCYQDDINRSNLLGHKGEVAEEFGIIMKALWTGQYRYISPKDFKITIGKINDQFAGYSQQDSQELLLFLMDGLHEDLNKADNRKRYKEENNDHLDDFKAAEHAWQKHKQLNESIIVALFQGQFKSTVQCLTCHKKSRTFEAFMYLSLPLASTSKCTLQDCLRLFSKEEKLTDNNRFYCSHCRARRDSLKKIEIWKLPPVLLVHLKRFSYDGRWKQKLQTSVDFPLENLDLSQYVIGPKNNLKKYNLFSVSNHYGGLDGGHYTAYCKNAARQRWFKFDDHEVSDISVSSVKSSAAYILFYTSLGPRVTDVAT
# Assay: co-IP; cell lysate in IP lysis buffer with protease inhibitor, 2000 μg protein, 1 μl primary antibody or IgG, Protein A + G Agarose, 4 °C overnight, washed with cold PBS three times, detected by blot; cell line and precipitating antibody not given
substance,measurement,value
Homeobox C11 (HOXC11) (from UniProt O43248 1-304),binding,no binding
